The source of these data is PubChem BioAssay AID1508600 (Functional Genomics Laboratory (NCATS/FGL), 2020).

About 3,700 (7%) of roughly 53,000 sequences were called active.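 How the source made its calls: active means gene knockdowns whose robust z-score for IL-1 alpha signal is at least 2 or at most -2, so actives lie on both sides; inactive means the rest.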 This is one part of the list.

The assay is described as follows: Components of the Cytosolic LPS Sensing Pathway: Gene Identification via Genome-wide siRNA Screen.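 Further: robust z of the log signal after scaling to non-targeting control siRNA wells of the plate.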 As to conditions: RAW264.7 macrophages, IL-1a HTRF, actives lie on both sides, screened at 100 nM (by protocol), cells primed 5 h with Pam3CSK4 first. In outline:
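Using IL-1a HTRF as read-out, the screen measured release from RAW264.7 cells after 48h siRNA knockdown (100 nM), 5 h Pam3CSK4 priming and 24 h cytosolic LipidA. Values were expressed relative to negative-control wells as robust z-scores.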
In general terms: TR-FRET usually uses a lanthanide donor and a delayed reading to cut background.
Turning to GGAGGAAAUGCACUACAAGTT against Pcif1, the z-score is inactive: 1.88.

With GGAAGUACAAACUACUAGUTT against Mcmbp, the z-score is inactive: -0.393.

Take GUAUUAAGACCAAACAGAUTT against Olfr623: the z-score is inactive: -0.497.

On to GGACCUGAGUUAGGAGAAUTT against Zfp105, for which the z-score was active: -2.06.

As for GGUGAUAAUAAAAAUGCAGTT against Pzp, the z-score is inactive: -0.0816.

Turning to GGGAUGUAUUUCAACAACUTT against Wwox, the z-score was inactive: 0.0276.

As for CCUUGAUGGUAAAUACUCATT against Vmn1r200, the z-score was inactive: -0.879.

For GCCUUCGAAGUCGUCCAAGTT against Cdca5, the z-score is inactive: 0.612.

For CCUACUGUUGCUAUUACCATT against Oscar, the z-score is inactive: -1.99.

Consider GGAACUGGCCAAGUACUUCTT against Sst, for which the z-score is inactive: 0.412.

As for GGAUGACAAGGUUAAGCUATT against Golm2, the z-score is inactive: -0.0855.

GGUUUGAAAUGAAACUUCATT against Nedd4l: the z-score was inactive: -0.0699.

On to “GGCUUCCUUCAGUGAGAAUTT against 1810065E05Rik”, for which the z-score was active: -2.02.

For the sequence GGUUCCUUUCCUUGAACUUTT against Mtmr3, the z-score is inactive: 1.37.

Turning to GUGCAACGUGAGCAAUACGTT against Selenbp2, the z-score is inactive: -0.417.

GGCACAUCAGAAUGGUUUATT against Txnrd3: the z-score is inactive: 1.27.

Consider GCUCAGAUCUUAUGAUACATT against Zfp35, for which the z-score was inactive: 0.398.

As for GGAGAUCCGGAAUUUUUAATT against Per2, the z-score is inactive: -0.0639.

Take GGACUUCUUGCUGGUCUAGTT against Spg7: the z-score is inactive: 1.71.

Take GGACCACAUUUUAUGUUGUTT against Trmt10b: the z-score is inactive: -0.129.

As to GGAGGUGUAGAGAUGAAGCTT against Metap1d, the z-score was inactive: 1.51.

Take CCUGCCUUUUCCUAAUGAATT against Ovca2: the z-score is inactive: 0.48.

Take GGACCCAAAUCUUUUUAGATT against Wac: the z-score was inactive: -1.03.

Take GGCCAUAGUGCAGUUAGGUTT against Cd24a: the z-score was inactive: -0.054.

In the case of GCUCCAGGGCAUUGUUUCUTT against Gm5409, the z-score was inactive: 0.64.

Turning to GUAACUCCUCCAUGAACUCTT against a, the z-score was inactive: 0.249.

For CCAGGUUCUCCGAAUCUCUTT against Cpa1, the z-score was inactive: -0.854.

Turning to GGCAGGAACUUUAUAAGGATT against Xlr4b, the z-score is inactive: 0.398.

On to GUUCUGAAGGGCGACGUAATT against Olfr1217, for which the z-score is inactive: 0.52.

On to GGUGGAUCAUACAAAUUUGTT against Pank2, for which the z-score was inactive: 0.584.

For GGGUAUUAAUGCCUCUGCATT against Gpr183, the z-score is inactive: -1.29.

Turning to CCAGAAAGAGAGCUCUAGGTT against Diaph1, the z-score was inactive: 1.57.

Turning to GGCUCAUUUUGAAGCUAAGTT against Bud13, the z-score was inactive: 0.899.

In the case of GGCAGGUAAUAAAGUUUGUTT against Kcne1l, the z-score was inactive: 1.45.

On to CCUUACUCAAGAUCCUGCUTT against Olfr1243, for which the z-score is inactive: -0.23.

Turning to GGACGACUACAGCUAUGACTT against Klk1b1, the z-score is inactive: 0.11.

In the case of CCAUGUUCAAGUCAAAACUTT against Poglut1, the z-score was inactive: -0.167.

Turning to GGCCCAGAUUUCUUAUAUATT against Tnfrsf19, the z-score is inactive: 0.618.

On to GGGACAGGUUGUUCAGUUCTT against Dbt, for which the z-score is inactive: -0.448.

Take GGAGCUGGACAAGUUUAAGTT against Tjap1: the z-score is inactive: -0.302.

With GACUCCCAGCUGGCUAUGATT against Ifna9, the z-score was inactive: 0.583.

Turning to CCAAUAGAGAAACUUUCUCTT against Micu2, the z-score was inactive: -0.147.

GGAAAAGCUUCUAAAGGAGTT against Tnfaip3: the z-score is inactive: 0.884.

Consider GGUGAAAGACCACAAAUUCTT against Prkca, for which the z-score was inactive: -0.824.

With CCAAUGUGCGAGCAAAGAUTT against Arid5a, the z-score was active: 2.48.

For the sequence GGCUUCACUAUACGAGAGATT against Mical1, the z-score was inactive: -0.167.

As to GGAGAAUCCGAGGAUAACUTT against Ereg, the z-score is inactive: 0.774.

With GGCCGACAUAAAGAAAUCATT against Nol7, the z-score was inactive: -0.744.

On to GGUCUCAAUGCCCAUCAUATT against Sqle, for which the z-score was inactive: 0.141.

As to GGCUUCACAAGCCAAAAGUTT against Gabrg2, the z-score was inactive: -0.515.

On to GGCCACAAACAACCUAACATT against Nme6, for which the z-score is inactive: -1.43.

On to CCACCUAAUUUCCUAGAUCTT against Rtp1, for which the z-score was inactive: 0.255.

In the case of GGCUGUCACCCUACAUGACTT against Uba1, the z-score is inactive: 0.0469.

As to GGUCAUCUUCCUUUUUGCUTT against Olfr1501, the z-score was inactive: -1.

Regarding GGCAUUUCUUCUUCUUCACTT against Ms4a3, the z-score is inactive: -1.67.

For GCCGUACAACAAUGAAUAUTT against Pcdh20, the z-score is inactive: -0.0167.

With GCUACAGUUCAGGGACUUGTT against Leng9, the z-score is inactive: 0.829.

Take CCAGCGAUCUUCCCAUUCUTT against Ccr8: the z-score was inactive: -0.844.

For GGACCGCUUCAAAACUGGUTT against Hcrtr2, the z-score was inactive: 0.276.

For GGAACUCUUUUCCUAAAAUTT against Slco1a5, the z-score is inactive: -0.838.

CCACAUUUUGGCCUAUCAGTT against Mtx2: the z-score is inactive: -1.3.

As for GGCAUGUUCAUGUUCACUATT against Lrrc26, the z-score was inactive: -1.63.

For the sequence GGUAGAGGCAAGAAAUUCATT against Slc5a5, the z-score is inactive: 0.811.

As for GGCUAGAGUUCACGUUGGATT against Mrps26, the z-score is inactive: -0.487.

On to CCUGCUAAUUUCAAGUGUATT against Abcg3, for which the z-score is inactive: 0.475.

For the sequence GGGUAAAGAGCUUCUUCCATT against Ahrr, the z-score is inactive: -0.0768.

For GGAACAGGUAGUUUGGGAATT against Slco6b1, the z-score was inactive: 1.26.

GGAACAACAUGUUCAAGAUTT against Ocrl: the z-score is inactive: -0.108.
